# Test results from the supplement of paper PMC4604168 (melanoma cell lines).
# Some of the results follow. Repeats are few or missing, and single values can be far off.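 The apoptosis fraction was the count of cleaved-PARP antibody-stained nuclei relative to all DNA-stained nuclei, imaged in 1,536-well plates. Screening doses were set so most cells survived, and baseline and induced cleaved-PARP levels vary greatly across cell lines.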
# Test system: SkMel2
# Assay: cleaved PARP positive nuclei fraction relative to DMSO control; melanoma cells; higher = more apoptosis
# Details: library dose: low library concentration; 72 h
row,SMILES,cleaved PARP positive nuclei fraction [%]
1,"C[C@]1(O)C[C@@H](c2nc(-c3ccc4ccc(-c5ccccc5)nc4c3)c3c(N)nccn32)C1 + C/C(O)=C(\C#N)C(=O)Nc1cc(Br)ccc1Br [LFM-A13] (first compound 0.4 µM, partner dose 2 µM)",156
2,"N.N.[Cl][Pt][Cl] [cisplatin] + Cc1cc([N+](=O)[O-])ccc1NS(=O)(=O)c1cc(Cl)ccc1Cl [FH535] (first compound 1.6 µM, partner dose 1 µM)",89.7
3,"Cn1cc(C2=C(c3cn(C4CCN(Cc5ccccn5)CC4)c4ccccc34)C(=O)NC2=O)c2ccccc21 [Enzastaurin] + O=C1NC(=O)/C(=C/c2ccc(-c3ccc(F)cc3O)o2)S1 [AS252424] (first compound 0.8 µM, partner dose 1 µM)",175
4,"C=CCNC1=C2C[C@@H](C)C[C@H](OC)[C@H](O)[C@@H](C)/C=C(\C)[C@H](OC(N)=O)[C@@H](OC)/C=C\C=C(/C)C(=O)NC(=CC1=O)C2=O [Tanespimycin] + Cc1cc(SCc2sc(-c3ccc(C(F)(F)F)c(F)c3)nc2C)ccc1OCC(=O)O [GW0742] (first compound 0.002 µM, partner dose 2 µM)",99.5
5,"O=C(O)c1ccc2c(c1)nc(Nc1cccc(Cl)c1)c1ccncc12 + O=C(Oc1ccc([N+](=O)[O-])cc1)N1CCC(C(O)(c2ccc3c(c2)OCO3)c2ccc3c(c2)OCO3)CC1 [JZL184] (first compound 0.4 µM, partner dose 1 µM)",82.5
